From patent EP2072528A1
No constants are given. Whether binding was seen depends on the method and setting. In cells and extracts the contact can be indirect. Some entries that bind do so weakly or less than the wild type.

Amino acid sequences for entries named in this document (tags omitted).
UniProt P26641: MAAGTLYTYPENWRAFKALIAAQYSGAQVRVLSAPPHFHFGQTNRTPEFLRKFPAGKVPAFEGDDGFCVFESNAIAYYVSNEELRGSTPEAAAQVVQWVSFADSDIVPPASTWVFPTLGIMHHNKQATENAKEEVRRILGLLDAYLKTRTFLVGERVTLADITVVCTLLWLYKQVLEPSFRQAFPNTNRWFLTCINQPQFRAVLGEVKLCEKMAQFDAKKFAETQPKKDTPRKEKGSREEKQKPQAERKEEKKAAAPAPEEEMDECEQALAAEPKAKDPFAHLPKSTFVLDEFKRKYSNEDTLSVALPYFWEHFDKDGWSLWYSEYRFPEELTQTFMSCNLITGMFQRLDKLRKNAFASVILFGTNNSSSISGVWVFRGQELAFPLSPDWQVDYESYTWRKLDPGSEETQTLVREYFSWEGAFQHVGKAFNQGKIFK
UniProt Q96RP9: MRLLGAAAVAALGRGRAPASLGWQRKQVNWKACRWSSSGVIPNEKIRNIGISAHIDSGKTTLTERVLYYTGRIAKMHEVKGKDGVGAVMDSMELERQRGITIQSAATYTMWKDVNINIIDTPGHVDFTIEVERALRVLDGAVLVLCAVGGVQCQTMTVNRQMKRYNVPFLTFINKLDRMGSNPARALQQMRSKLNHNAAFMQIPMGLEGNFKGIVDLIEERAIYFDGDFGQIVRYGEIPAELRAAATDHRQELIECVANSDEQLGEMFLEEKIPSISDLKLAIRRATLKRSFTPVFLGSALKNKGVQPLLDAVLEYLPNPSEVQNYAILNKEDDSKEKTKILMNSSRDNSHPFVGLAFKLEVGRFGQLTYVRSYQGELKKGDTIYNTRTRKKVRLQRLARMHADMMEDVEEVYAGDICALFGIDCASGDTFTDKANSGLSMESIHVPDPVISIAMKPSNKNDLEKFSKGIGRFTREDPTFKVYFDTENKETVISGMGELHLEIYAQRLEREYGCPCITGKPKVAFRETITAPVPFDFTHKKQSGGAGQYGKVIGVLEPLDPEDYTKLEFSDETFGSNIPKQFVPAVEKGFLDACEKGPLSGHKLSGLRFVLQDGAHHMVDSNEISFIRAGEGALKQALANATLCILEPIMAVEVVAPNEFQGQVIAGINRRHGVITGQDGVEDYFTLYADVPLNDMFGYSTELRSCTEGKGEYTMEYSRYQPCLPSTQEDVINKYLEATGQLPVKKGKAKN

Experiments:
[1] = target: EEF1G Maltose Binding Protein (MBP)-fusion protein (human) (UniProt P26641); assay: in vitro pulldown with MBP-fusion protein
[2] = target: GFM1 Maltose Binding Protein (MBP)-fusion protein (human) (UniProt Q96RP9); assay: in vitro pulldown with MBP-fusion protein

- binding [1]: binds
- binding [2]: binds
B1: 212 amino acid residue central fragment of human MuRF2 (MuRF2 Bcc, B-Box + coiled-coil domain) (protein)
chain: KSDQPMCEEHEEERINIYCLNCEVPTCSLCKVFGAHKDCQVAPLTHVFQRQKCELSDGIAILVGSNDRVQGVISQLEDTCKTIEECCRKQKQELCEKFDYLYGILEEKRNEMTQVITRTQEEKLEHVRALIKKYSDHLENVSKLVESGIQFMDEPEMAVFLQNAKTLLKKISEASKAFQMEKIEHGYENMNHFTVNLNREEKIIREIDFYRE
